Our source for the survivor count and T/C values is PubChem BioAssay AID248 (DTP/NCI, 2004).

The list does not hold the whole screen: it is rich in T/C values a quarter to a half above the control, in often repeated tests (any T/C) and in doses without a T/C. Other doses and runs of a compound stand elsewhere. T/C is the treated group as % of the vehicle group. Some entries give survivors of the animals treated and no T/C: the source holds a T/C of zero for them, seemingly a mark for toxic or unscored doses. Some survivor counts are full or nearly so, which does not show that the dose was tolerated: the source hardly ever lists a survival T/C far under the control, and the zero likely stands for such cases as well. Survivors were counted at the toxicity check, usually on the fifth day, unless a day is given; later deaths do not show. Schedules are NCI's codes, taken here to give the interval after Q, in days (D) or hours (H), and the number of doses after X. Some schedules carry Z or #; the key to these is not given. Some entries were tested several times; the results are listed from low to high. For survival time, this PubChem deposit counts one and a half times the control or more as active, and values a quarter to a half above the control carry no call in these data; other NCI protocols may use other cut-offs. Brackets with × stand for listed records that agree.

This test deals with L1210 leukemia ip in BDF1 mice, survival T/C. Nature of the test: NCI In Vivo Anticancer Drug Screen. Data for tumor model L1210 Leukemia (intraperitoneal) in B6D2F1 (BDF1) mice. To be noted: T/C endpoint: mean survival time, higher T/C = longer survival.
[1] abbreviates: dose: 200.0 mg/kg/injection, schedule: Q01DX001 (ip), vehicle: saline.
The mark [2] stands for this setting: dose: 400.0 mg/kg/injection, schedule: Q01DX001 (ip), vehicle: saline.
Setting [3] is: dose: 400.0 mg/kg/injection, schedule: Q04DX003 (ip), vehicle: saline.
[4] abbreviates: dose: 100.0 mg/kg/injection, schedule: Q04DX002 (ip), vehicle: Klucel (hydroxypropylcellulose) (HPC).
[5] abbreviates: dose: 400.0 mg/kg/injection, schedule: Q01DX009 (ip), vehicle: saline with Tween-80.
The mark [6] stands for this setting: dose: 100.0 mg/kg/injection, schedule: Q01DX001 (ip), vehicle: saline.
Setting [7] is: dose: 200.0 mg/kg/injection, schedule: Q04DX002 (ip), vehicle: Klucel (hydroxypropylcellulose) (HPC).
Setting [8] is: dose: 400.0 mg/kg/injection, schedule: Q01DX009 (ip), vehicle: Klucel (hydroxypropylcellulose) (HPC).
[9] abbreviates: dose: 400.0 mg/kg/injection, schedule: Q04DX002 (ip), vehicle: Klucel (hydroxypropylcellulose) (HPC).
[10] abbreviates: dose: 300.0 mg/kg/injection, schedule: Q01DX001 (ip), vehicle: carboxymethylcellulose (CMC).

In the case of `Clc1cc2nc3[nH]c4ccccc4c3nc2cc1Cl`, the survivor count is 0 of 6 under setting [1] and 0 of 6 under setting [2].

For the compound `O=C1C=C2CCN(Cc3ccccc3)CC2CC1` (stereo not given), the survivor count under setting [3] is 5 of 6.

`CC(C)n1cnc2c(=S)nc[nH]c21`: the T/C (dose: 29.0 mg/kg/injection, schedule: Q01DX Z (oral), vehicle: carboxymethylcellulose (CMC)) is 128 % of control. Further, the survivor count (dose: 315.0 mg/kg/injection, schedule: Q01DX Z (ip), vehicle: carboxymethylcellulose (CMC)) is given as 4 of 6.

As for `Cc1ccc(C(C#N)c2ccc(N)cc2)cc1` (stereo not given), the survivor count under setting [2] is listed as 2 of 4.

For `COc1ccc2c(CSc3ncnc4nc[nH]c34)cc(=O)oc2c1`, the survivor count under setting [4] is reported as 3 of 3.

With `COc1c2c([n+](C)c3c(OC)cccc13)OC(C(C)C)C2` (stereo not given), the survivor count was 6 of 6 (dose: 2.0 mg/kg/injection, schedule: Q01DX009 (ip), vehicle: acetone); 2 of 6 (dose: 3.0 mg/kg/injection, schedule: Q01DX009 (ip), vehicle: saline); 4 of 6 (dose: 4.0 mg/kg/injection, schedule: Q04DX003 (ip), vehicle: Klucel (hydroxypropylcellulose) (HPC)); 0 of 6 (dose: 4.0 mg/kg/injection, schedule: Q04DX003 (ip), vehicle: acetone); 0 of 6 (dose: 5.94 mg/kg/injection, schedule: Q01DX001 (ip), vehicle: saline); 0 of 6 (dose: 8.0 mg/kg/injection, schedule: Q04DX003 (ip), vehicle: Klucel (hydroxypropylcellulose) (HPC)). Besides, the survivor count is, setting by setting: (dose: 9.0 mg/kg/injection, schedule: Q01DX001 (ip), vehicle: saline) 0 of 6; (dose: 13.5 mg/kg/injection, schedule: Q01DX001 (ip), vehicle: saline) 0 of 6.

As for `Cc1nonc1-c1nc(SCC(=O)NN)n[nH]1`, the survivor count under setting [4] is on record as 1 of 3.

`CC1(c2cccs2)C(=O)NC(=O)N1C(=O)CCl` (stereo not given): the survivor count runs as follows: under setting [5], 0 of 6; (dose: 400.0 mg/kg/injection, schedule: Q04DX003 (ip), vehicle: saline with Tween-80) 4 of 6.

With `CC1(C)N=C(N)N=C(N)N1c1cccc(CNc2ccccc2)c1`, the survivor count (dose: 50.0 mg/kg/injection, schedule: Q01DX001 (ip), vehicle: saline) was 1 of 6; the survivor count under setting [6] is recorded as 0 of 6; the survivor count under setting [1] is 0 of 6; the survivor count under setting [2] was 0 of 6.

Consider `O=C(N/N=C/c1ccco1)c1ccccc1`, for which the survivor count under setting [5] is 0 of 3 and 1 of 6.

With `O=C(CCCN1CCC(O)CC1)c1ccccc1`, the survivor count under setting [3] is on record as 1 of 6.

`C/C(=N/N(C)C)c1ccc(Cl)cc1`: the survivor count (dose: 200.0 mg/kg/injection, schedule: Q04DX003 (ip), vehicle: saline) was 6 of 6 and the survivor count under setting [3] was 6 of 6.

As to `NC(=S)N/N=C/c1ccc(F)cn1`, the T/C (dose: 6.25 mg/kg/injection, schedule: Q01DX009 (ip), vehicle: saline with Tween-80) is 129 % of control and the T/C (dose: 12.5 mg/kg/injection, schedule: Q01DX009 (ip), vehicle: saline with Tween-80) was 133 % of control. Besides, the survivor count (dose: 25.0 mg/kg/injection, schedule: Q01DX009 (ip), vehicle: saline with Tween-80) is 0 of 6 and 2 of 6; the survivor count (dose: 28.1 mg/kg/injection, schedule: Q01DX009 (ip), vehicle: saline with Tween-80) is recorded as 3 of 10; the survivor count (dose: 50.0 mg/kg/injection, schedule: Q01DX001 (ip), vehicle: saline with Tween-80) is 1 of 10; the survivor count (dose: 50.0 mg/kg/injection, schedule: Q04DX002 (ip), vehicle: saline with Tween-80) is recorded as 0 of 3; the survivor count (dose: 75.0 mg/kg/injection, schedule: Q01DX001 (ip), vehicle: saline with Tween-80) is 1 of 10; the survivor count (dose: 112.5 mg/kg/injection, schedule: Q01DX001 (ip), vehicle: saline with Tween-80) is given as 0 of 10.

Regarding `CC(=O)NCCCOc1ccc([N+](=O)[O-])cc1Cl`, the T/C is, setting by setting: under setting [4], 99 (2×), 100, 105 % of control; under setting [7], 105, 108, 111, 125 % of control. Moreover, the survivor count by setting is: (dose: 400.0 mg/kg/injection, schedule: Q01DX001 (ip), vehicle: Klucel (hydroxypropylcellulose) (HPC)) 1 of 6; under setting [8], 1 of 3 and 4 of 6; under setting [9], 1 of 6, 1 of 3, 3 of 6.

Consider `C/C=C/C=C\COC(=O)C1CC1`, for which the survivor count (dose: 400.0 mg/kg/injection, schedule: Q04DX002 (ip), vehicle: saline) is listed as 1 of 3.

Take `CC(C(O)c1ccccc1)[n+]1ccccc1` (stereo not given): the survivor count runs as follows: (dose: 150.0 mg/kg/injection, schedule: Q01DX001 (ip), vehicle: saline) 0 of 6; (dose: 300.0 mg/kg/injection, schedule: Q01DX001 (ip), vehicle: saline) 0 of 6.

As to `CC1(C)CC(OP(=O)(CCl)OC2CC(C)(C)N(O)C(C)(C)C2)CC(C)(C)N1O`, for the setting “dose: 400.0 mg/kg/injection, schedule: Q04DX002 (ip), vehicle: water”, the survivor count is 0 of 3.

As for `CCCCP(=[Se])(CCCC)CCCC`, the survivor count runs as follows: (dose: 12.5 mg/kg/injection, schedule: Q01DX009 (ip), vehicle: Klucel (hydroxypropylcellulose) (HPC)) 0 of 6; (dose: 25.0 mg/kg/injection, schedule: Q01DX009 (ip), vehicle: Klucel (hydroxypropylcellulose) (HPC)) 0 of 6; (dose: 100.0 mg/kg/injection, schedule: Q04DX003 (ip), vehicle: Klucel (hydroxypropylcellulose) (HPC)) 6 of 6; (dose: 200.0 mg/kg/injection, schedule: Q04DX003 (ip), vehicle: Klucel (hydroxypropylcellulose) (HPC)) 2 of 6; (dose: 400.0 mg/kg/injection, schedule: Q04DX003 (ip), vehicle: Klucel (hydroxypropylcellulose) (HPC)) 0 of 6.

Take `Cc1cccc([P+](Cc2ccccc2)(c2cccc(C)c2)c2cccc(C)c2)c1`: the survivor count reads like this: (dose: 30.0 mg/kg/injection, schedule: Q01DX001 (ip), vehicle: carboxymethylcellulose (CMC)) 1 of 6; (dose: 60.0 mg/kg/injection, schedule: Q01DX001 (ip), vehicle: carboxymethylcellulose (CMC)) 2 of 6; (dose: 75.0 mg/kg/injection, schedule: Q01DX001 (ip), vehicle: carboxymethylcellulose (CMC)) 2 of 6; (dose: 150.0 mg/kg/injection, schedule: Q01DX001 (ip), vehicle: carboxymethylcellulose (CMC)) 0 of 6; under setting [10], 0 of 6.

As for `CCCCCCCCCCCC(=O)N/N=C(\C)c1cccc2ccccc12`, the survivor count is, setting by setting: (dose: 200.0 mg/kg/injection, schedule: Q01DX009 (ip), vehicle: Klucel (hydroxypropylcellulose) (HPC)) 6 of 6; under setting [8], 0 of 6.

For the compound `N#CCCCN1CCCCCC1`, the survivor count (dose: 100.0 mg/kg/injection, schedule: Q01DX009 (ip), vehicle: saline) was 3 of 6.

Take `CCOS(=O)(=O)c1ccc([N+](=O)[O-])cc1[N+](=O)[O-]`: where the note is “dose: 400.0 mg/kg/injection, schedule: Q01DX009 (ip), vehicle: saline”, the survivor count is 3 of 6.

For the compound `Cc1cc(N(CCCl)CCCl)ccc1C=Nc1ccccc1-n1ccnc1C`, the survivor count is given as 0 of 3 under setting [4], 0 of 3 under setting [7] and 0 of 3 under setting [9].

On to `C/C(Cc1cc(C)[nH]c(=S)n1)=N\NC(N)=O`, for which, under “dose: 200.0 mg/kg/injection, schedule: Q01DX009 (ip), vehicle: saline with Tween-80”, the survivor count was 3 of 3.

Take `ClCCNCc1cccc(Nc2ccnc3cc(Cl)ccc23)c1`: under setting [10], the survivor count is reported as 2 of 6.

As for `CC(C)=NNCCO`, under setting [6], the survivor count is 1 of 6.

Turning to `CCC#CC#CCC`, the survivor count (dose: 200.0 mg/kg/injection, schedule: Q01DX009 (ip), vehicle: saline) is recorded as 0 of 6 and the survivor count (dose: 300.0 mg/kg/injection, schedule: Q01DX009 (ip), vehicle: saline) is 0 of 6.
